Test system: 3 dpf zebrafish larvae
Test: ECG recording in zebrafish larvae before and after drug treatment
Settings: from QTc percentage change before and after drug treatment

Row | Compound | Mean Z-factor score (Terfenadine 0.1 µM) | Mean Z-factor score (Terfenadine 0.3 µM) | Mean Z-factor score (Terfenadine 10 µM) | Mean Z-factor score (Terfenadine 30 µM) | Mean Z-factor score (Terfenadine 30 µM, listed as Terfenadine) | Mean Z-factor score (Terfenadine 50 µM) | Mean Z-factor score (Terfenadine 50 µM, listed as Terfenadine) | Mean Z-factor score (Verapamil 25 µM)
1 | CC(C)(C)c1ccc(C(O)CCCN2CCC(C(O)(c3ccccc3)c3ccccc3)CC2)cc1 (centres unmarked) [terfenadine] | −1.671 | −0.254 | −0.371 | 0.68 | 0.676 | 0.78 | 0.784 | –
2 | COc1ccc(CCN(C)CCCC(C#N)(c2ccc(OC)c(OC)c2)C(C)C)cc1OC (centres unmarked) [verapamil] | – | – | – | – | – | – | – | −6.747

From publication PMC3620317, “Optimisation of Embryonic and Larval ECG Measurement in Zebrafish for Quantifying the Effect of QT Prolonging Drugs” (PLoS ONE, 2013)
